The text below walks through data of article doi:10.1101/2025.03.11.641985.

Protein sequences, listed by entry. Tags and fused reporters are not part of them.
UniProt P17839: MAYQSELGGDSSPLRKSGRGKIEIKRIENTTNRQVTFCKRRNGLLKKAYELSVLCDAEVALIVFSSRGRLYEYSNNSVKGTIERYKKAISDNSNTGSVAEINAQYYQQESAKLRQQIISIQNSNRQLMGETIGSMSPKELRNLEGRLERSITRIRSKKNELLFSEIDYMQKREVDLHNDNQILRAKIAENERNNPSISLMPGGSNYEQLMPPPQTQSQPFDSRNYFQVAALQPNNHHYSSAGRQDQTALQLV
UniProt Q9C7G4: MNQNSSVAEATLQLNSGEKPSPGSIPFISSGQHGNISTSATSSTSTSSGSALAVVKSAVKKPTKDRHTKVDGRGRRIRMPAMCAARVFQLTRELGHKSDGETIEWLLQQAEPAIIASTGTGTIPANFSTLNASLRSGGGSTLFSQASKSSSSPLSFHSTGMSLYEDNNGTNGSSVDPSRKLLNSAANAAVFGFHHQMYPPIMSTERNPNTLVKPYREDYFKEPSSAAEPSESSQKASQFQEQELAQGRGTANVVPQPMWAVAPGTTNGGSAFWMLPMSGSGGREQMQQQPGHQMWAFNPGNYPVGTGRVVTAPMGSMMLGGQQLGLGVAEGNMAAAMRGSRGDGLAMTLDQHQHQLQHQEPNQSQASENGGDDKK

In this assay the target is T1, SPL/NZZ-GFP (SPOROCYTELESS/NOZZLE fused to GFP, from pSPL/NZZ::SPL/NZZ:GFP) (Arabidopsis thaliana) (UniProt O81836).
T1 sequence: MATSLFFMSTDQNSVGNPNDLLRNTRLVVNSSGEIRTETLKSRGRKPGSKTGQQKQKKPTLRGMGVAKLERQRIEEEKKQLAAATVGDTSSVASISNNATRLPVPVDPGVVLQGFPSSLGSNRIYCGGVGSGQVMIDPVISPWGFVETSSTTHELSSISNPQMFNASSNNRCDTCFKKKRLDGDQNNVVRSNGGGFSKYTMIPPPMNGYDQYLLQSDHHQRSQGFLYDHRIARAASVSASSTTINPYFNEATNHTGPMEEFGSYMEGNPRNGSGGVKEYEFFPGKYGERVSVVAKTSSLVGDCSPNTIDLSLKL
In words: affinity purification with mass spectrometry.

Results are given in words; binding and its absence hold for the method and conditions named. Binding seen in cells or lysates may run through a third protein. A yes stands for co-enrichment or nearness to the bait. Other partners may have been found. Sequences can lack the tags named with a protein.

Regarding “AGAMOUS (AG), endogenous (from UniProt P17839 1-252)”, the binding result was “binds”.
Next, “TCP22, endogenous (from UniProt Q9C7G4 1-375)”: “binds”; “…1 (SEP1), endogenous (from UniProt P29382 1-251)”: “binds”; “…2 (SEP2), endogenous (from UniProt P29384 1-250)”: “binds”.
As for “…3 (SEP3), endogenous (from UniProt O22456 1-251)”, the binding entry is given as “binds”.
Next, “…OOF2 (SHP2), endogenous (from UniProt P29385 1-246)”: “binds”.
